According to patent US12564591B2, “HCK as a therapeutic target in MYD88 mutated diseases” (Dana-Farber Cancer Institute, Inc., priority 2019, dated 2026):
For at least one compound, name, drawing or mass did not settle the structure.

Columns and labels:
[1] = tested on: BTK and ERK 1/2 phosphorylation; conditions: vector only, and BTK^WT transduced BCWM.1 or TMD8 cells, 1.0 hour
panel of 464 kinases = assay: KINOMEscan kinome selectivity profiling (DiscoverX); assay type: binding
Method: The compounds were profiled at a concentration of 1.0 μM against a panel of over 460 kinases by DiscoverX.

C=CC(=O)N1CCC[C@@H](n2nc(-c3ccc(Oc4ccccc4)cc3)c3c(N)ncnc32)C1 [ibrutinib, reference compound]
BTK and ERK 1/2 phosphorylation [1]: effectively blocked | S10 (panel of 464 kinases): 0.04 | S35 (panel of 464 kinases): 0.12
